Values of other authors as cited in patent US20120259389A1, “TREATMENT OF POSTPRANDIAL HYPERGLYCEMIA BY GASTRIC ELECTRICAL STIMULATION” (priority 2009, published 2012).
Where two headings read alike, the source gives them in different places. At least one compound was matched to its structure with a doubt left.

Tested on: ZDF rats
Conditions: Type II diabetic ZDF rats

Compound	reduction in mean change in blood glucose AUC (400 μg/kg/day for 42 days, reported by Larsen et al. 2008)	reduction in mean change in blood glucose AUC (10 mg/kg/day for 21 days, reported by Uhles et al. 2009)
CCCCCCCCCCCCCCCC(=O)N[C@@H](CCC(=O)NCCCC[C@H](NC(=O)[C@H](C)NC(=O)[C@H](C)NC(=O)[C@H](CCC(N)=O)NC(=O)CNC(=O)[C@H](CCC(=O)O)NC(=O)[C@H](CC(C)C)NC(=O)[C@H](Cc1ccc(O)cc1)NC(=O)[C@H](CO)NC(=O)[C@H](CO)NC(=O)[C@@H](NC(=O)[C@H](CC(=O)O)NC(=O)[C@H](CO)NC(=O)[C@@H](NC(=O)[C@H](Cc1ccccc1)NC(=O)[C@@H](NC(=O)CNC(=O)[C@H](CCC(=O)O)NC(=O)[C@H](C)NC(=O)[C@@H](N)Cc1cnc[nH]1)[C@@H](C)O)[C@@H](C)O)C(C)C)C(=O)N[C@@H](CCC(=O)O)C(=O)N[C@@H](Cc1ccccc1)C(=O)N[C@H](C(=O)N[C@@H](C)C(=O)N[C@@H](Cc1c[nH]c2ccccc12)C(=O)N[C@@H](CC(C)C)C(=O)N[C@H](C(=O)N[C@@H](CCCNC(=N)N)C(=O)NCC(=O)N[C@@H](CCCNC(=N)N)C(=O)NCC(=O)O)C(C)C)[C@@H](C)CC)C(=O)O [Liraglutide]	21%	
CCc1ccc(CCOc2ccc(CC3SC(=O)NC3=O)cc2)nc1 (centres unmarked) [Pioglitazone]		46%
